In PubChem BioAssay AID2685 (National Center for Advancing Translational Sciences (NCATS), 2010):
Some of the results follow. These are further read-outs of the screen, such as a control signal, another cell line or another target. No call is given for them. Compounds called inactive in the main read-out are mostly missing here. Potencies come from curve fits of mixed quality, noted in brackets.

Assay: qHTS Assay for Lipid Storage Modulators in Drosophila S3 Cells;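 as to cell number change: cells counted by Cell Tracker Red CMTPX staining in the red channel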
Details: BODIPY lipid droplet fluorescence, 18-24 h; for cell number change: measured here: cell count max response, cells fed with added oleic acid
In short: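 Laser-scanning cytometry quantifies lipid droplet accumulation (500–530 nm total intensity; droplet/cell object ratio) in oleic acid-fed (400 uM added) Drosophila S3 cells treated with a concentration series. 20 uM Triacsin C defined 100% inhibition.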

[1] = measured here: cell number channel AC50, cells fed with added oleic acid
[2] = measured here: lipid fluorescence (Fed channel) AC50, cells fed with added oleic acid

| SMILES | cell number change | AC50 [1] | AC50 [2] |
| --- | --- | --- | --- |
| O=C(COC(=O)CC(c1ccccc1)c1ccccc1)Nc1c(F)cccc1F | 42% | 16.4 µM [rising, single point] | 29.1 µM [rising, single point] |
| CN(C)c1ccc(/C=C(\C#N)C(=O)c2ccccc2)cc1 | -18.5% | – | – |
| O=C(NCc1cccs1)C1CCN(c2ccc(S(=O)(=O)N3CCOCC3)cc2Cl)CC1 | 0.209% | – | – |
| Cc1ccccc1OCCC(=O)OCC(=O)NCCc1ccccc1 | -12% | – | – |
| COc1ccccc1/C=C/C(=O)OCC(=O)N1CCN(S(=O)(=O)c2ccc(C)cc2C)CC1 | 7.63% | – | – |
| CC(C)CC(COCc1ccc(Cl)cc1)N1CCN(C(=O)c2cccc(C(F)(F)F)c2)CCC1=O (stereo not drawn) | – | – | 0.00651 µM [falling, full curve, poor fit] |
| CS(=O)(=O)N(CCc1ccccc1)CC(=O)NCc1ccncc1 | -67.5% | 25.9 µM [falling, partial curve] | – |
| CCN(CC)CCNC(=O)C12CC3CC(CC(C3)C1)C2 | -90.6% | 29.1 µM [falling, single point] | – |
| CCCCCc1nnc(NC(=O)C(=O)OCC)s1 | -50.2% | – | 29.1 µM [falling, single point] |
| Cc1ccc(CONC(=O)/N=C/N(C)C)cc1 | 11.5% | – | 0.651 µM [rising, full curve] |
| CN(C(=O)c1ccc(Br)o1)C1CCCCC1 | -1.49% | – | – |
| Cc1ccc(-c2csc(-c3c[nH]c4ccccc34)n2)cc1 | 6.5% | 0.461 µM [rising, partial curve] | 0.146 µM [rising, full curve, poor fit] |
| C=CCn1c(SCC(=O)Nc2ccc3c(c2)OCO3)nnc1-c1ccccc1OC | 67.8% | 0.651 µM [rising, partial curve] | 0.651 µM [rising, partial curve] |
| Cc1ccc(-n2nc(C)c3c(C)c(CCC(=O)Nc4ccc(CN5CCCC5)cc4)c(C)nc32)cc1 | -8.01% | – | – |
| O=C(NCc1ccco1)c1nn2c(C(F)(F)F)cc(-c3cccs3)nc2c1Br | 36.5% | – | – |
| CC(NS(=O)(=O)c1ccccc1)C1COc2ccccc2O1 (stereo not drawn) | -9.31% | 6.51 µM [falling, single point] | 6.51 µM [falling, single point] |
| C/C(=C\c1ccc(Cl)cc1)C(=O)c1c(C)cc(C)[nH]c1=O | 5.96% | – | 29.1 µM [rising, single point] |
| CN1CCN(C(=O)C2CC(c3c(F)cccc3Cl)=NO2)CC1 (stereo not drawn) | – | – | 6.51 µM [falling, single point] |
| COc1ccc(C(=O)NCc2ccc(-c3nc4ccccc4s3)cc2)cc1OC | -65.8% | 29.1 µM [falling, single point] | 0.146 µM [rising, full curve, poor fit] |
| Cc1nc2ccccc2c2c1CC(C)S2 (stereo not drawn) | -0.979% | – | 0.517 µM [falling, single point] |
| COC(=O)Nc1ncc(CN2C(=O)c3ccccc3C2=O)s1 | 2.04% | – | 10.3 µM [rising, partial curve, poor fit] |

| SMILES | cell number change | AC50 [1] | AC50 [2] |
| --- | --- | --- | --- |
| c1ccc(-c2[nH]ncc2CN2CCN(Cc3ccc4c(c3)OCO4)CC2)cc1 | 11.1% | – | 3.66 µM [falling, single point] |
| CN(C)C(=O)COc1ccc(Br)cc1 | -70.8% | 25.9 µM [falling, partial curve, poor fit] | – |
| CCOCCCn1c(-c2ccc(Cl)cc2)n[nH]c1=S | 40.1% | 5.8 µM [rising, full curve, poor fit] | 29.1 µM [falling, single point] |
| COc1ccc(C(=O)c2c3ccccc3[n+]([O-])n2CCC(N)=O)cc1 | – | – | 29.1 µM [rising, single point] |
| O=c1[nH]c(-c2cccnc2)nc2sc(-c3ccccc3)cc12 | -122% | 20.6 µM [falling, partial curve] | 18.4 µM [falling, partial curve] |
| CCS(=O)(=O)N1CCCC(C(=O)NCc2cccc(OC)c2)C1 (stereo not drawn) | 12.2% | – | 0.103 µM [falling, full curve, poor fit] |
| CC(C)C(NC(=O)C(NC(=O)C1O[C@@H]2OC(C)(C)O[C@@H]2[C@H]2OC(C)(C)O[C@@H]12)C(C)C)C(=O)O (stereo partly drawn) | -3.17% | 5.8 µM [falling, partial curve] | 5.17 µM [falling, partial curve] |
| COc1ccc(CN(C)Cc2c(O)ccc3cc(Br)ccc23)cc1OC | 0.403% | – | 0.146 µM [rising, full curve, poor fit] |
| Cc1ccc(S(=O)(=O)Nc2cccc3cccnc23)c([N+](=O)[O-])c1 | -47.8% | 11.6 µM [falling, partial curve, poor fit] | 0.00461 µM [falling, full curve, poor fit] |
| Cc1c(C(=O)NCc2ccccc2)cnn1-c1ccccc1 | -1.09% | – | 0.116 µM [falling, full curve, poor fit] |
| CN1CCN(c2ccc(S(=O)(=O)N3CCCCC3)cc2NC(=O)/C=C/c2ccc(Cl)c([N+](=O)[O-])c2)CC1 | -25% | – | 16.4 µM [falling, partial curve] |
| NC(=S)N/N=C/c1coc2ccc(Cl)cc2c1=O | -24.8% | – | – |
| O=C1Nc2ccccc2N(O)N1c1ccc(Cl)c(Cl)c1 | 15.1% | – | 2.06 µM [rising, partial curve] |
| CC(C)n1nccc1N(Cc1ccc(Br)cc1)S(=O)(=O)c1ccccc1 | – | – | 35.5 µM [rising, single point] |
| Cc1cc(NC(=O)c2ccc(Cl)cc2Cl)no1 | 12.6% | – | 11.6 µM [rising, single point] |
| COc1ccc(N2CCN(c3nc4cc(C)ccc4cc3C=O)CC2)cc1 | -1.68% | – | – |
| O=C(Nc1ccccc1F)C1CCN(S(=O)(=O)c2cccnc2)CC1 | – | – | 29.1 µM [rising, single point] |
| Cc1ccc(NS(=O)(=O)c2ccc(/C=C/C(=O)O)cc2)cc1Cl | 4.94% | – | – |
| Cc1nc(C)c(C(=O)O)c(-c2cccs2)c1C(=O)O | -25.2% | – | – |
| COc1cccc(NS(=O)(=O)NC(=O)c2c(C)[nH]c3ccccc23)c1 | -19.5% | – | – |
| COc1ccc(/C(N)=N/OC(=O)C2CCC(=O)N2S(=O)(=O)c2ccc(C)cc2)cc1OC (stereo not drawn) | – | 0.58 µM [rising, single point] | 14.6 µM [rising, partial curve] |

Quoted at random: 3 compounds from above.

| SMILES | cell number change | AC50 [1] | AC50 [2] |
| --- | --- | --- | --- |
| Cc1nc2ccccc2c2c1CC(C)S2 (stereo not drawn) | -0.979% | – | 0.517 µM [falling, single point] |
| COc1ccccc1/C=C/C(=O)OCC(=O)N1CCN(S(=O)(=O)c2ccc(C)cc2C)CC1 | 7.63% | – | – |
| O=C(NCc1cccs1)C1CCN(c2ccc(S(=O)(=O)N3CCOCC3)cc2Cl)CC1 | 0.209% | – | – |

Carrying on:

| SMILES | cell number change | AC50 [1] | AC50 [2] |
| --- | --- | --- | --- |
| O=C(c1cc(-c2ccccn2)nc2ccc(Br)cc12)N1CCN(S(=O)(=O)c2ccccc2)CC1 | 43.3% | – | 16.4 µM [rising, partial curve] |
| Cc1[nH]c2ccccc2c1C(=O)C(=O)Nc1ccc2c(c1)OCO2 | – | – | 29.1 µM [falling, single point] |
| O=C(NCC1COc2ccccc2O1)c1cccc(S(=O)(=O)N2CCN(c3ccccc3)CC2)c1 (stereo not drawn) | – | 6.51 µM [rising, single point] | – |
| CC(C)OC(=O)COc1cc(O)c2c(=O)cc(-c3ccccc3)oc2c1 | 33.2% | 10.3 µM [rising, single point] | – |
| CCOc1cc(Cl)c(NC(=O)c2ccco2)cc1OCC | 7.43% | – | 0.651 µM [rising, full curve, poor fit] |
| Cc1cc(C)nc(N2CCCC(C(=O)Nc3ccc(F)cc3)C2)n1 (stereo not drawn) | 13.4% | – | – |
| Cc1c(Cl)cccc1NC(=S)NC(=O)CCN1C(=O)c2ccccc2C1=O | 17.5% | – | 3.26 µM [rising, full curve, poor fit] |
| CC1CCN(S(=O)(=O)c2ccc(NC(=O)CN3CCCCCC3)cc2)CC1 | 27.6% | 0.0164 µM [rising, full curve, poor fit] | 0.631 µM [falling, full curve, poor fit] |
| COc1ccccc1NC(=S)N(Cc1ccccc1)Cc1ccccn1 | -13.8% | – | 13 µM [rising, partial curve, poor fit] |
| COc1ccc(NC(=O)C2=Cc3ccccc3OC2)cc1 | 28.2% | 0.259 µM [rising, full curve, poor fit] | – |
| CCC(NC(=O)c1ccccc1NC(=O)c1ccccc1)C(=O)NNC(=O)CSc1nc2ccccc2o1 (stereo not drawn) | 20.9% | – | 6.51 µM [rising, partial curve, poor fit] |
| Cc1ccc(Cc2cnc(N)s2)o1 | -4.64% | 0.146 µM [falling, full curve, poor fit] | 2.06 µM [falling, single point] |
| O=C(CCc1nnc2n(Cc3ccccc3Cl)c(=O)c3ccccc3n12)NCCCN1CCOCC1 | 1.7% | – | 20.6 µM [rising, partial curve] |
| CCN1CCN(CCCNC(=O)CCC(=O)N2CCOc3ccc(Cl)cc32)CC1 | -2.02% | – | – |
| Cc1ccc(C)n1-c1ccc(C(=O)Nc2ccccc2)cc1 | 13.1% | – | 11.6 µM [rising, partial curve, poor fit] |
| CCN(c1cccc(C)c1)S(=O)(=O)c1c(C)[nH]c(=O)[nH]c1=O | -39.9% | 4.11 µM [falling, full curve] | 14.6 µM [falling, partial curve] |
| O=C(Cc1ccccc1)NCC(=O)N1CCN(c2ccccc2)CC1 | 13.3% | – | – |
| Cc1ccc(-c2nnc3ccc(SC(C)C(=O)O)nn23)cc1 (stereo not drawn) | – | 0.206 µM [falling, full curve, poor fit] | 0.651 µM [falling, single point] |
| O=C(C1CCCN(S(=O)(=O)c2ccccc2)C1)N1CCCCCC1 (stereo not drawn) | 32.6% | 10.3 µM [rising, partial curve, poor fit] | 0.0231 µM [rising, full curve, poor fit] |
